In publication doi:10.1101/2023.11.28.569054:
These are yes or no findings as the source states them, for the method shown. In cells and extracts the contact can be indirect. These calls come from enrichment with a bait or labelling near it, and not all partners need be listed. Sequences can lack the tags named with a protein.

Protein sequences, listed by entry. Tags and fused reporters are not part of them. Residues count along the entry.
UniProt P27824, residues 21-592: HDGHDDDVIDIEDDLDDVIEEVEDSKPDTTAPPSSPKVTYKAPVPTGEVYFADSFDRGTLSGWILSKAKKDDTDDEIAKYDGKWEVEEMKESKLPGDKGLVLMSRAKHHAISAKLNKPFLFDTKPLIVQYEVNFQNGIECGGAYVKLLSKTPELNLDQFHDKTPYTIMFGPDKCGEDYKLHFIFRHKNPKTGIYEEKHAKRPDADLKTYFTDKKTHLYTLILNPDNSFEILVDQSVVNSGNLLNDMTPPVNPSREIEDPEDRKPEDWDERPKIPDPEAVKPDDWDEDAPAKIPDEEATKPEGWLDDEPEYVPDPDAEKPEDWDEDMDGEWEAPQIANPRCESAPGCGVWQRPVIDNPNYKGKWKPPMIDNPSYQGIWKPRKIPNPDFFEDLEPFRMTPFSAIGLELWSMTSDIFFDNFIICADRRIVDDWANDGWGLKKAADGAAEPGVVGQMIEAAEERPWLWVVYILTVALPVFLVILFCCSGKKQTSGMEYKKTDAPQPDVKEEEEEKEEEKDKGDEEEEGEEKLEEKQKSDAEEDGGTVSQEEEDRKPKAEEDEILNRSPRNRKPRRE

Target: T1, GFP-EMC2 (human) (UniProt Q15006)
T1 sequence: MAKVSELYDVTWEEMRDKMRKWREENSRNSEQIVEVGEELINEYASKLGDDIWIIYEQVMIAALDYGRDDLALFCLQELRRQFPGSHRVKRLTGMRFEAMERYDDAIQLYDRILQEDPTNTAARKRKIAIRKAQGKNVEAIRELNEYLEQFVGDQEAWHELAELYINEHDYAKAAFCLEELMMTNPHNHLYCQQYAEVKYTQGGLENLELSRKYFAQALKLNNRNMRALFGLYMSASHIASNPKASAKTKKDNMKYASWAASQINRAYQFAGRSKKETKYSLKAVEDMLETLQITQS
Assay: affinity purification with mass spectrometry

Substance	binding
Calnexin (from UniProt P27824 21-592)	binds
the ATPase p97 (from UniProt P55072 1-806)	binds
